Numbering of substitutions follows the chain as printed. Like-named read-outs stand apart in the source and are kept apart here. These are yes or no findings as the source states them, for the method shown. Binding seen in cells or lysates may run through a third protein. Some results given as binding are weak or reduced against the parent protein; the word gives no strength. For some of these results: Tags and fused reporters may be left off the sequences shown.
Experiments:
SF3A3-Flag (human) [1] = target: T1, SF3A3-Flag (human) (UniProt Q12874); experiment: co-IP
T1 sequence: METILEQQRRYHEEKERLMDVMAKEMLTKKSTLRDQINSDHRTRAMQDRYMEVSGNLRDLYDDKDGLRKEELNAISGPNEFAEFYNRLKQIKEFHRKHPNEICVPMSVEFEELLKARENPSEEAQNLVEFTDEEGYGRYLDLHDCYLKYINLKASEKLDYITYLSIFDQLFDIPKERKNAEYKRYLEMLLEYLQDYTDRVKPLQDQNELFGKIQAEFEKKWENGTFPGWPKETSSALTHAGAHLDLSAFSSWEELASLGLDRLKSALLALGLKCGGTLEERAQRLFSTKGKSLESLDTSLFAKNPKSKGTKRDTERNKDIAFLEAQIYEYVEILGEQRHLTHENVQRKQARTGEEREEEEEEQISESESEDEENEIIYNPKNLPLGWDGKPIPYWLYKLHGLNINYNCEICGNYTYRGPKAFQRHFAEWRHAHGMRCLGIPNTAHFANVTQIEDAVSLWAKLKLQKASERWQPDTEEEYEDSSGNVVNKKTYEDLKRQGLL

Chains of the proteins cited; added tags and fusions are not shown.
UniProt Q91YE7: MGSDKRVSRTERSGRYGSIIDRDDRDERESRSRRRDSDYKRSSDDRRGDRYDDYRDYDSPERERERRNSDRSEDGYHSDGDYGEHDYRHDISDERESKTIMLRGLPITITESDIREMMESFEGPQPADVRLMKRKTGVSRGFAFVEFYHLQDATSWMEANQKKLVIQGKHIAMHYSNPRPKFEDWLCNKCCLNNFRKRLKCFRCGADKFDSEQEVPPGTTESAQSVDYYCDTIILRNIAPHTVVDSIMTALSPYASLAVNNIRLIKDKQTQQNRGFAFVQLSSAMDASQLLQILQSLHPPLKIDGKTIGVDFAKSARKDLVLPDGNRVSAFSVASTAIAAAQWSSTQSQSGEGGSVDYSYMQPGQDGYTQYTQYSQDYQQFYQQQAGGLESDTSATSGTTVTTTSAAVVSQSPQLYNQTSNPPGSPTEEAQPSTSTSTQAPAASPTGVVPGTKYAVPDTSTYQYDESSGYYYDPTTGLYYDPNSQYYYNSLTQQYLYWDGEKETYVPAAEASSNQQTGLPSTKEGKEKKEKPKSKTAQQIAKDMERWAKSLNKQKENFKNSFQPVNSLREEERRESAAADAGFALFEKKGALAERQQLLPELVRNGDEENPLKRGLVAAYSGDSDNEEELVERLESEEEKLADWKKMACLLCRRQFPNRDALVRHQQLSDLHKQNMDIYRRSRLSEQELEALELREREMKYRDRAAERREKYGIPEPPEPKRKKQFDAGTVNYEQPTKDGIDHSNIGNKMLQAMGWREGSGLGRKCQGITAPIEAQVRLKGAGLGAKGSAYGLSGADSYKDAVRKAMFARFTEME
UniProt O43143: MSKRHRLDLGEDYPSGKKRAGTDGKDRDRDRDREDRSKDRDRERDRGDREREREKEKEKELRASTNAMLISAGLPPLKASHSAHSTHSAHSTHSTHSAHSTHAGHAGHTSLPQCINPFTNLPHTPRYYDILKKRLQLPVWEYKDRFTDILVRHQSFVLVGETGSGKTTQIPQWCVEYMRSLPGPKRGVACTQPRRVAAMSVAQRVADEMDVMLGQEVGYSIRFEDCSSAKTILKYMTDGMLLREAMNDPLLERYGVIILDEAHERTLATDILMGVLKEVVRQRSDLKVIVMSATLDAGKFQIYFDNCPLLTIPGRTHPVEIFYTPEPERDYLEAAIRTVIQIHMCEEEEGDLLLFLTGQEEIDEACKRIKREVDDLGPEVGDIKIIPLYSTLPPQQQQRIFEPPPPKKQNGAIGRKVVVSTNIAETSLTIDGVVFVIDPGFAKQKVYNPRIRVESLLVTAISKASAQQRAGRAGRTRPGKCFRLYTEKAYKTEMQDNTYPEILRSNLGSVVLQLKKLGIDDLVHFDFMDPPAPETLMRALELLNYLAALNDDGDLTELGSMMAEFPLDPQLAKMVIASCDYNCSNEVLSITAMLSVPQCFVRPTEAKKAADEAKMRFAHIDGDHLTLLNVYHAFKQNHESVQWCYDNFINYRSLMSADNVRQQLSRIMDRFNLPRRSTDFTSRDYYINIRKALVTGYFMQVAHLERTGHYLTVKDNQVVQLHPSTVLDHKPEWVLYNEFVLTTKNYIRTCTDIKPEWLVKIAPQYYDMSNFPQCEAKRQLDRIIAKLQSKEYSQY
UniProt P98175: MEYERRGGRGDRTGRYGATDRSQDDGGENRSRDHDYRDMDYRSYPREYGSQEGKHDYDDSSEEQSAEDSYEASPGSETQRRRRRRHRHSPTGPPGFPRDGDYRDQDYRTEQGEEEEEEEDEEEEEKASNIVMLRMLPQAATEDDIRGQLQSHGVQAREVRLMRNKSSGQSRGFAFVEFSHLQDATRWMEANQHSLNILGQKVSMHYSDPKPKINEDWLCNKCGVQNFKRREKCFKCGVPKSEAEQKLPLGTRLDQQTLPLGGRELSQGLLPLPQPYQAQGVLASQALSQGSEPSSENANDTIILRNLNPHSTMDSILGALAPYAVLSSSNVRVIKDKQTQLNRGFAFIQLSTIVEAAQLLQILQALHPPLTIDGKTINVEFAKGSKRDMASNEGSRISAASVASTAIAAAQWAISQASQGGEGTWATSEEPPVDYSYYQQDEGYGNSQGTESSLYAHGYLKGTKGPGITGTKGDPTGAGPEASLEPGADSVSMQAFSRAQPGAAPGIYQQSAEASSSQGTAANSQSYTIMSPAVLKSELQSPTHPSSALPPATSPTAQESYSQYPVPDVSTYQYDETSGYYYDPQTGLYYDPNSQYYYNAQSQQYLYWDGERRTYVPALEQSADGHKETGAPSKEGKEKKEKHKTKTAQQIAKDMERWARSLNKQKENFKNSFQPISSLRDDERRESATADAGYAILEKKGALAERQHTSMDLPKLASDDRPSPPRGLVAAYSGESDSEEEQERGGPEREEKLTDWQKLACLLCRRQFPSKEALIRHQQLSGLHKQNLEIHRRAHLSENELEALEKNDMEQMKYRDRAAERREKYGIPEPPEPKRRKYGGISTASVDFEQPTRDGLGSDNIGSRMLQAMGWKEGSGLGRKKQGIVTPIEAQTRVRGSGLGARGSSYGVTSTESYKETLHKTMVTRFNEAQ
UniProt P52756: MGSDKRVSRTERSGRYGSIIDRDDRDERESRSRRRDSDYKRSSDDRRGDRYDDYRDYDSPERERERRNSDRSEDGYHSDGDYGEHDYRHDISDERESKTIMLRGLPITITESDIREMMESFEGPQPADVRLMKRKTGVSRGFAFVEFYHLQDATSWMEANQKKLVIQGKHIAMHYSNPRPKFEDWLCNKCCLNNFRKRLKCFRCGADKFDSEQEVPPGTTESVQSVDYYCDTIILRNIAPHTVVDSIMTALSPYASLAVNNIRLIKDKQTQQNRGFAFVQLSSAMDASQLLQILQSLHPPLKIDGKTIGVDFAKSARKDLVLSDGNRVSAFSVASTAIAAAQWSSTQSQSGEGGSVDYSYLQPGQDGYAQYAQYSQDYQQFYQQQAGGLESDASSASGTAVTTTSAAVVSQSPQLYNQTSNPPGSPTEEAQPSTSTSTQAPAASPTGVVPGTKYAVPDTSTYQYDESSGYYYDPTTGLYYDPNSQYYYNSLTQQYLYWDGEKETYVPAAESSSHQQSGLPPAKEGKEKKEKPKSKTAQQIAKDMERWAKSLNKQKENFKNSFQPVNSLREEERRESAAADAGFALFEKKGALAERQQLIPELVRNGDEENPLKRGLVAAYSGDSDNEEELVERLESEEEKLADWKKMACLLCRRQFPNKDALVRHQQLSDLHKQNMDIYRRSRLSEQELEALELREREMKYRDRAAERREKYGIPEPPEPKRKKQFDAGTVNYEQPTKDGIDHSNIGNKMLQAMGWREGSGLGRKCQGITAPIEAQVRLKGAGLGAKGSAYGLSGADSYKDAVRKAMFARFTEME

SF3A3-Flag (human) [2] = target: T1, SF3A3-Flag (human); experiment: co-IP; remark: listed apart in the source
[3] = target: RBM5 (mouse brain) (mouse (endogenous in mouse brain)) (UniProt Q91YE7); experiment: co-sedimentation

RNA helicase DHX15 (from UniProt O43143 1-795) (enzyme)
binding (SF3A3-Flag (human) [1]): binds

RBM10 (endogenous, human) (from UniProt P98175 1-930)
binding (SF3A3-Flag (human) [1]): binds

RBM5 (endogenous, human) (from UniProt P52756 1-815)
binding (SF3A3-Flag (human) [1]): binds

B1: CHERP (protein, UniProt Q8IWX8 1-916)
chain: MEMPLPPDDQELRNVIDKLAQFVARNGPEFEKMTMEKQKDNPKFSFLFGGEFYSYYKCKLALEQQQLICKQQTPELEPAATMPPLPQPPLAPAAPIPPAQGAPSMDELIQQSQWNLQQQEQHLLALRQEQVTAAVAHAVEQQMQKLLEETQLDMNEFDNLLQPIIDTCTKDAISAGKNWMFSNAKSPPHCELMAGHLRNRITADGAHFELRLHLIYLINDVLHHCQRKQARELLAALQKVVVPIYCTSFLAVEEDKQQKIARLLQLWEKNGYFDDSIIQQLQSPALGLGQYQATLINEYSSVVQPVQLAFQQQIQTLKTQHEEFVTSLAQQQQQQQQQQQQLQMPQMEAEVKATPPPPAPPPAPAPAPAIPPTTQPDDSKPPIQMPGSSEYEAPGGVQDPAAAGPRGPGPHDQIPPNKPPWFDQPHPVAPWGQQQPPEQPPYPHHQGGPPHCPPWNNSHEGMWGEQRGDPGWNGQRDAPWNNQPDAAWNSQFEGPWNSQHEQPPWGGGQREPPFRMQRPPHFRGPFPPHQQHPQFNQPPHPHNFNRFPPRFMQDDFPPRHPFERPPYPHRFDYPQGDFPAEMGPPHHHPGHRMPHPGINEHPPWAGPQHPDFGPPPHGFNGQPPHMRRQGPPHINHDDPSLVPNVPYFDLPAGLMAPLVKLEDHEYKPLDPKDIRLPPPMPPSERLLAAVEAFYSPPSHDRPRNSEGWEQNGLYEFFRAKMRARRRKGQEKRNSGPSRSRSRSKSRGRSSSRSNSRSSKSSGSYSRSRSRSCSRSYSRSRSRSRSRSRSSRSRSRSQSRSRSKSYSPGRRRRSRSRSPTPPSSAGLGSNSAPPIPDSRLGEENKGHQMLVKMGWSGSGGLGAKEQGIQDPIKGGDVRDKWDQYKGVGVALDDPYENYRRNKSYSFIARMKARDECK
binding (SF3A3-Flag (human) [2]): binds

B2: RBM17/SPF45 (protein, UniProt Q96I25 1-401)
chain: MSLYDDLGVETSDSKTEGWSKNFKLLQSQLQVKKAALTQAKSQRTKQSTVLAPVIDLKRGGSSDDRQIVDTPPHVAAGLKDPVPSGFSAGEVLIPLADEYDPMFPNDYEKVVKRQREERQRQRELERQKEIEEREKRRKDRHEASGFARRPDPDSDEDEDYERERRKRSMGGAAIAPPTSLVEKDKELPRDFPYEEDSRPRSQSSKAAIPPPVYEEQDRPRSPTGPSNSFLANMGGTVAHKIMQKYGFREGQGLGKHEQGLSTALSVEKTSKRGGKIIVGDATEKDASKKSDSNPLTEILKCPTKVVLLRNMVGAGEVDEDLEVETKEECEKYGKVGKCVIFEIPGAPDDEAVRIFLEFERVESAIKAVVDLNGRYFGGRVVKACFYNLDKFRVLDLAEQV
binding (SF3A3-Flag (human) [2]): binds

B3: SF3A3 (mouse brain) (protein, UniProt Q9D554 1-501)
chain: T1 sequence with A215T, E216D, E222D, H339Q
binding [3]: binds

B4: SF3B1 (mouse brain) (protein, UniProt Q99NB9 1-1304)
chain: MAKIAKTHEDIEAQIREIQGKKAALDEAQGVGLDSTGYYDQEIYGGSDSRFAGYVTSIAATELEDDDDDYSSSTSLLGQKKPGYHAPVALLNDIPQSTEQYDPFAEHRPPKIADREDEYKKHRRTMIISPERLDPFADGGKTPDPKMNARTYMDVMREQHLTKEEREIRQQLAEKAKAGELKVVNGAAASQPPSKRKRRWDQTADQTPGATPKKLSSWDQAETPGHTPSLRWDETPGRAKGSETPGATPGSKIWDPTPSHTPAGAATPGRGDTPGHATPGHGGATSSARKNRWDETPKTERDTPGHGSGWAETPRTDRGGDSIGETPTPGASKRKSRWDETPASQMGGSTPVLTPGKTPIGTPAMNMATPTPGHIMSMTPEQLQAWRWEREIDERNRPLSDEELDAMFPEGYKVLPPPAGYVPIRTPARKLTATPTPLGGMTGFHMQTEDRTMKSVNDQPSGNLPFLKPDDIQYFDKLLVDVDESTLSPEEQKERKIMKLLLKIKNGTPPMRKAALRQITDKAREFGAGPLFNQILPLLMSPTLEDQERHLLVKVIDRILYKLDDLVRPYVHKILVVIEPLLIDEDYYARVEGREIISNLAKAAGLATMISTMRPDIDNMDEYVRNTTARAFAVVASALGIPSLLPFLKAVCKSKKSWQARHTGIKIVQQIAILMGCAILPHLRSLVEIIEHGLVDEQQKVRTISALAIAALAEAATPYGIESFDSVLKPLWKGIRQHRGKGLAAFLKAIGYLIPLMDAEYANYYTREVMLILIREFQSPDEEMKKIVLKVVKQCCGTDGVEANYIKTEILPPFFKHFWQHRMALDRRNYRQLVDTTVELANKVGAAEIISRIVDDLKDEAEQYRKMVMETIEKIMGNLGAADIDHKLEEQLIDGILYAFQEQTTEDSVMLNGFGTVVNALGKRVKPYLPQICGTVLWRLNNKSAKVRQQAADLISRTAVVMKTCQEEKLMGHLGVVLYEYLGEEYPEVLGSILGALKAIVNVIGMHKMTPPIKDLLPRLTPILKNRHEKVQENCIDLVGRIADRGAEYVSAREWMRICFELLELLKAHKKAIRRATVNTFGYIAKAIGPHDVLATLLNNLKVQERQNRVCTTVAIAIVAETCSPFTVLPALMNEYRVPELNVQNGVLKSLSFLFEYIGEMGKDYIYAVTPLLEDALMDRDLVHRQTASAVVQHMSLGVYGFGCEDSLNHLLNYVWPNVFETSPHVIQAVMGALEGLRVAIGPCRMLQYCLQGLFHPARKVRDVYWKIYNSIYIGSQDALIAHYPRIYNDDKNTYIRYDLDYIL
binding [3]: binds

Source: doi:10.1101/2023.09.21.558883
